No constants are given. Whether binding was seen depends on the method and setting. Binding seen in cells or lysates may run through a third protein. Here binding means that the protein was enriched with, or labelled near, the bait; the list need not be complete.
Tests used:
[1] = target: vimentin (human (endogenous in A549, H1299)) (UniProt P08670); test: affinity purification with mass spectrometry; co-IP of vimentin from H1299 cells, LC-MS/MS of the co-precipitated proteins
[2] = target: T1, NACHT, LRR, and PYD domain‐containing protein 11 (NLRP11) (human (endogenous in A549, H1299)) (UniProt P59045); test: affinity purification with mass spectrometry; co-IP of NLRP11 from H1299 cells, LC-MS/MS of the co-precipitated proteins
T1 sequence: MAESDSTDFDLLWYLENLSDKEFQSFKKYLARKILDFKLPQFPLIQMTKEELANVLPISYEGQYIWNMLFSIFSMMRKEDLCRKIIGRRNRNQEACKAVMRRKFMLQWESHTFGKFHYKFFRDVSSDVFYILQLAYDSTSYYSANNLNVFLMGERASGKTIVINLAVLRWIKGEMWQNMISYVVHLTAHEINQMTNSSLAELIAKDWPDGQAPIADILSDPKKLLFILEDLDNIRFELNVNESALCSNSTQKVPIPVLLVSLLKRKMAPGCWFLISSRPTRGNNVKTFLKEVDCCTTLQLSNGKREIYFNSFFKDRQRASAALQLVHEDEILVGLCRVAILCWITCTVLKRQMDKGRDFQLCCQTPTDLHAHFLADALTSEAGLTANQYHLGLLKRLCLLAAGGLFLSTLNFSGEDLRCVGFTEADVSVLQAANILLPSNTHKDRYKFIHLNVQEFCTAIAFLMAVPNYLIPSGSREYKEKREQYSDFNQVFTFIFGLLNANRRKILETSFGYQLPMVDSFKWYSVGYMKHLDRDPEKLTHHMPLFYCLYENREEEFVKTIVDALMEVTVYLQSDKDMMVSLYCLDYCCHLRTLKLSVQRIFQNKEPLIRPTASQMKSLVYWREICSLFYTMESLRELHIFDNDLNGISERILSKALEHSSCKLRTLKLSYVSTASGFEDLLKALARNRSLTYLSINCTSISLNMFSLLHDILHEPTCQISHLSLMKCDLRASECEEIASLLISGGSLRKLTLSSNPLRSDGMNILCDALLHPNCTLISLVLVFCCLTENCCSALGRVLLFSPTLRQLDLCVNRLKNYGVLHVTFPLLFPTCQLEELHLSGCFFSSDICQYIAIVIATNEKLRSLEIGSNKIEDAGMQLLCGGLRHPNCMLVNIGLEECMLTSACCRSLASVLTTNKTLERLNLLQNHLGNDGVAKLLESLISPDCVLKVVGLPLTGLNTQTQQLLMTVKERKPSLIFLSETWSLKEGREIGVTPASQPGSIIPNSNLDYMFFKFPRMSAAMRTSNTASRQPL

Sequences of proteins named here, by UniProt entry; tags and fusion partners are left off.
UniProt P08670: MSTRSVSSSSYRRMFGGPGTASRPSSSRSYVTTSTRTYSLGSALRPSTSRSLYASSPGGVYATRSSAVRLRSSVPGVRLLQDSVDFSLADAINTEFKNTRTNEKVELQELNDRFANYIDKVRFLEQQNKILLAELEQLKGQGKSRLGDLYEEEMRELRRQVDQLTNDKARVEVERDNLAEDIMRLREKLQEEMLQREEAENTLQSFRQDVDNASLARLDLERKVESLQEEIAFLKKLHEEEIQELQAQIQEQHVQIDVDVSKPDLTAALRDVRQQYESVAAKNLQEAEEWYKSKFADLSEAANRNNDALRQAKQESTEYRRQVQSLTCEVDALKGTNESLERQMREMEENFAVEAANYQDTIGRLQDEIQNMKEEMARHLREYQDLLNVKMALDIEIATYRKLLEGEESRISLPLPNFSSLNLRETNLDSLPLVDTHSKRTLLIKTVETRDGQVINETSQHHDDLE
UniProt O95251: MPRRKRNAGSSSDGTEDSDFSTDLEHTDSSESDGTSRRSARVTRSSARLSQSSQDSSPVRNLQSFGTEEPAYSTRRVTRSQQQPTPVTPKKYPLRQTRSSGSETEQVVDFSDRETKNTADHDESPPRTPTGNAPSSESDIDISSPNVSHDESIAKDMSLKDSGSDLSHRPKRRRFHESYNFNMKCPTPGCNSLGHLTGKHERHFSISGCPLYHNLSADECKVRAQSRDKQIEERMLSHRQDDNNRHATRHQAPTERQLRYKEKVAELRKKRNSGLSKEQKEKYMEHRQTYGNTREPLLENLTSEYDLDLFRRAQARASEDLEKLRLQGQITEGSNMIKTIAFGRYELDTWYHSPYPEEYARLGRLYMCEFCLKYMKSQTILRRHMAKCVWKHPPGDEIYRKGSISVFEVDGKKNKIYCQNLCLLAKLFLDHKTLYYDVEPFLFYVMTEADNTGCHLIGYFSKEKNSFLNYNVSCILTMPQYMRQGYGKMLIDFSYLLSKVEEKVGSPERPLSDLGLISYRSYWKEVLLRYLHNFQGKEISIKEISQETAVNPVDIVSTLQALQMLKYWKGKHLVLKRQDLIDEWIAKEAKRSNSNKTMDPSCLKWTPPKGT

binding [1]	binding [2]	Substance
binds	binds	lysine acetyltransferase 7 (KAT7) (from UniProt O95251 1-611) (enzyme)
–	binds	vimentin (from UniProt P08670 1-466)
–	binds	vimentin acetylated at Lys104 (vimentin‐K104Ac) (from UniProt P08670 1-466)

From article PMC10477884
